The target of assay [1] is T1, MARC-3 N-terminal cytoplasmic region (MARC-3N, 1-98 aa) (C. elegans) (UniProt Q93227).
T1 sequence: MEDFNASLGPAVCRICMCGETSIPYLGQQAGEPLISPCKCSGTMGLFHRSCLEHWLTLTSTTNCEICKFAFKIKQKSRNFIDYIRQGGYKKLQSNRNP
In words: two-hybrid; DupLEX-A Yeast Two-Hybrid System; MARC-3 regions as bait (pEG202), other proteins as prey (pJG4-5); yeast EGY48 with the lacZ reporter pSH18-34; X-gal plates.

Assay [2] addresses T2, MARC-3 C-terminal cytoplasmic region (MARC-3C, 179-431 aa) (C. elegans) (UniProt Q93227).
T2 sequence: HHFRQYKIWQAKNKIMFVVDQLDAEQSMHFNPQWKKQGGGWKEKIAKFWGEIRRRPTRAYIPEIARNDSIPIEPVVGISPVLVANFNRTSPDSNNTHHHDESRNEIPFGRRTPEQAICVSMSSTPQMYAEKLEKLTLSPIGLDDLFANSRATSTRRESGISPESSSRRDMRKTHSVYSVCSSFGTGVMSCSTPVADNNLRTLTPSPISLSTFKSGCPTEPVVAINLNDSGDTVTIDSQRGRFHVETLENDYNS
The assay is described as above.

These are yes or no findings as the source states them, for the method shown.

This is an account of results in PMC10817901.

As for “MBK-2 (full length isoform a, 1-508 aa) (C. elegans) (enzyme)”, the binding result in assay [1] and in assay [2] was “no binding” in each case.
